Data: paper doi:10.1101/2025.11.23.689998
Results are given in words; binding and its absence hold for the method and conditions named. Binding seen in cells or lysates may run through a third protein. Some binding calls cover weakened binding; strength is not graded here.

Sequences of proteins named here, by UniProt entry; tags and fusion partners are left off. A line that says so, or that is headed by a name, gives the form on record, which may keep a tag or linker. Residues count along the entry.
RBOHD N-terminus (aa1-376) fused to cLuc (Q9FIJ0, residues 1-376): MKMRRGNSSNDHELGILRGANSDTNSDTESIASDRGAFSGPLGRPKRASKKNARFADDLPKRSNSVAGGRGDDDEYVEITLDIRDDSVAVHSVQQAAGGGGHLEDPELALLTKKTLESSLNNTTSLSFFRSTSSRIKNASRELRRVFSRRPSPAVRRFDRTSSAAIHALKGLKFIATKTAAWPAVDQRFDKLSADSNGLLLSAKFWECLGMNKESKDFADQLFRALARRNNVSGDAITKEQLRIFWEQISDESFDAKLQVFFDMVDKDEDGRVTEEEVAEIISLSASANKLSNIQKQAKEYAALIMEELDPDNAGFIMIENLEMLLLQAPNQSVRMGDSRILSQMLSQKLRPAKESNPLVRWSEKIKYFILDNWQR
RBOHD C-terminus (aa756-922) fused to cLuc (Q9FIJ0, residues 756-921): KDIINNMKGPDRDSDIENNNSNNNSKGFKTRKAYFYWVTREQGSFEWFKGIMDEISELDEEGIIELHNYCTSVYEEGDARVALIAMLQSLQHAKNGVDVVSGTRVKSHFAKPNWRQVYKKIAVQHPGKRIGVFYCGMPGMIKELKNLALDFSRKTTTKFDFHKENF
UniProt Q9SCZ4, residues 470-895: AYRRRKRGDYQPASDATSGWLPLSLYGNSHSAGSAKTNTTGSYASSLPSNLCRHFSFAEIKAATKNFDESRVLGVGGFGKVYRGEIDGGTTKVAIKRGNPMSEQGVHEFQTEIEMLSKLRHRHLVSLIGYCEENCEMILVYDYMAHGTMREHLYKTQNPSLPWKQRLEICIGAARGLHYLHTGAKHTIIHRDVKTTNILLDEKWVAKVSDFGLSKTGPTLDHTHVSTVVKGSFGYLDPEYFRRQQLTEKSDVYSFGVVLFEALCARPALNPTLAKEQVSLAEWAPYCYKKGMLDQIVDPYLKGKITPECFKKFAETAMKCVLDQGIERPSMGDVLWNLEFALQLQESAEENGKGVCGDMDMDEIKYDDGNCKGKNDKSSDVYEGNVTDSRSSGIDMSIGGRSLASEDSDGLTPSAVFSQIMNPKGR
UniProt Q9ZV07: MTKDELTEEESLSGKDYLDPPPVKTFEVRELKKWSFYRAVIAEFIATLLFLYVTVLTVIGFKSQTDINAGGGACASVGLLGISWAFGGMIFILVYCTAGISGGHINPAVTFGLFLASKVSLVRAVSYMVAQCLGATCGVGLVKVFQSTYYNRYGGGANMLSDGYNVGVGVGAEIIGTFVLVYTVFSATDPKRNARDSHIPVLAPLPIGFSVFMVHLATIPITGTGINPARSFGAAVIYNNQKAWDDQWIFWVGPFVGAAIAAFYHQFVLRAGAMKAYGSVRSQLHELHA
UniProt Q8GYA4, residues 348-634: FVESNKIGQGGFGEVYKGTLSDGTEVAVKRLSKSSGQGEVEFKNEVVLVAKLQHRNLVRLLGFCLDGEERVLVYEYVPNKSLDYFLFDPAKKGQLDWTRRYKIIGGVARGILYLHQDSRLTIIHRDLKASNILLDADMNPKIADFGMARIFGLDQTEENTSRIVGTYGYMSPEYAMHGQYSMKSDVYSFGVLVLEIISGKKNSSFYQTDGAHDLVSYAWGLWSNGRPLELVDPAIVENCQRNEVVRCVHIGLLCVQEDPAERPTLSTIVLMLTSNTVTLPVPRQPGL
UniProt P14713: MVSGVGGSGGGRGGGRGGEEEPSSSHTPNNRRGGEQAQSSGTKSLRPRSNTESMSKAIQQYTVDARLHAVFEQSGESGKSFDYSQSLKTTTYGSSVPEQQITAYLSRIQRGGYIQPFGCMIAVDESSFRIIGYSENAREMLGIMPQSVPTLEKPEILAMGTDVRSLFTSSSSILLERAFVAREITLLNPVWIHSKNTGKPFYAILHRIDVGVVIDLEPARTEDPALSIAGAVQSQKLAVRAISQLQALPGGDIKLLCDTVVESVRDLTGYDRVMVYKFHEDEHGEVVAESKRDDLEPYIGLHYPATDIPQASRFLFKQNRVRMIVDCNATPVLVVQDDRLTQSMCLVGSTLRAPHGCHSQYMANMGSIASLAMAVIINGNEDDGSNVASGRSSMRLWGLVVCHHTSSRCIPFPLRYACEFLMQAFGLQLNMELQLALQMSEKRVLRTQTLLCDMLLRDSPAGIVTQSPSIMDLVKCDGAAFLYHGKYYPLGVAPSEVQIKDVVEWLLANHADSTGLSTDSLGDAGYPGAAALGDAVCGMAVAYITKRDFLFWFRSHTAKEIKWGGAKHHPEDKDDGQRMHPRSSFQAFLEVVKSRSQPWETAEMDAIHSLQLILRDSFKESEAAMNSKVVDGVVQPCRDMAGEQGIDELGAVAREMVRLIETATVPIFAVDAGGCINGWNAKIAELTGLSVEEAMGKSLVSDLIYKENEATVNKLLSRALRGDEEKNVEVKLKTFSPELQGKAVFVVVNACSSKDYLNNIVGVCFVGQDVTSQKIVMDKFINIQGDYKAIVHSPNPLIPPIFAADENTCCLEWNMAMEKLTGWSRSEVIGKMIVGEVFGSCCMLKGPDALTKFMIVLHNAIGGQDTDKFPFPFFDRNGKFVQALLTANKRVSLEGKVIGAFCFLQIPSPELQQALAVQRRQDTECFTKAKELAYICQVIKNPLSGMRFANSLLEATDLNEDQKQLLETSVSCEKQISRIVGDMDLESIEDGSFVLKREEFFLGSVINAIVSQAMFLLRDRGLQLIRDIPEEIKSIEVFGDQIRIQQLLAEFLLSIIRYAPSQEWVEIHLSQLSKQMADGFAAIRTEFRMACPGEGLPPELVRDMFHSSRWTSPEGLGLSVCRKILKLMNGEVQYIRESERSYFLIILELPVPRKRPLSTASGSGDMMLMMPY

Assays:
[1] = target: MBP-RBOHD N-terminus (aa1-376) (Arabidopsis thaliana) (UniProt Q9FIJ0); test: pull-down
[2] = target: MBP-RBOHD C-terminus (aa756-922) (Arabidopsis thaliana) (UniProt Q9FIJ0); test: pull-down
[3] = target: RBOHD N-terminus (aa1-376) fused to cLuc (Arabidopsis thaliana) (UniProt Q9FIJ0); test: split reporter
[4] = target: cytosolic domain of FER (aa470-895) fused to nLuc (Arabidopsis thaliana) (UniProt Q9SCZ4); test: split reporter
[5] = target: full length PIP2-6 fused to nLuc (Arabidopsis thaliana) (UniProt Q9ZV07); test: split reporter
[6] = target: cytosolic domain of CRK10 (aa348-634) fused to nLuc (Arabidopsis thaliana) (UniProt Q8GYA4); test: split reporter
[7] = target: RBOHD C-terminus (aa756-922) fused to cLuc (Arabidopsis thaliana) (UniProt Q9FIJ0); test: split reporter

Q: Which binding [1] does the source give for “HA-phyB (full length PhyB with N-terminal 3x-HA) (from UniProt P14713 1-1172)” here?
A: binds

Q: What about the binding [2] of the same substance?
A: binds

Q: Which binding [3] does the source give for “cytosolic domain of CRK10 (aa348-634) fused to nLuc (from UniProt Q8GYA4 348-634) (domain or fragment)” here?
A: binds

Q: For “cytosolic domain of FER (aa470-895) fused to nLuc (from UniProt Q9SCZ4 470-895) (domain or fragment)”, which binding [3] is on record?
A: binds

Q: Which results are given for “full length PhyB fused to cLuc (from UniProt P14713 1-1172)”?
A: binding [4]: binds; binding [5]: binds; binding [6]: binds

Q: Which results are given for “full length PhyB fused to nLuc (from UniProt P14713 1-1172)”?
A: binding [3]: binds; binding [7]: binds
